Tested on: nuclear thyroid hormone receptors (rat liver)
Settings: variety of solubilized receptor preparations (liver, brain, GC cells); single class of sites; FIG. 5

CCCCc1oc2ccccc2c1C(=O)c1cc(I)c(OCCN(CC)CC)c(I)c1 [amiodarone, 2-butyl-3-[3,5-diiodo-4-(β-diethylaminoethoxy)-benzoyl]benzofuran]
concentrations at which competition with T3 for binding was dose-dependent: 10^-7 to 10^-4 M

From US5500807A, “Selection method for pharmacologically active compounds” (The Regents of the University of California, priority 1992, dated 1996)
